According to PubChem BioAssay AID1508600 (Functional Genomics Laboratory (NCATS/FGL), 2020):
The campaign covered roughly 53,000 sequences. About 3,700 (7%) were called active.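 The calls were made as follows: active = gene knockdowns whose robust z-score for IL-1 alpha signal is at least 2 or at most -2, so actives lie on both sides; inactive = the rest.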 The list shows a part of the results.

test: Components of the Cytosolic LPS Sensing Pathway: Gene Identification via Genome-wide siRNA Screen; conditions: RAW264.7 macrophages, IL-1a HTRF, actives lie on both sides, screened at 100 nM (by protocol), cells primed 5 h with Pam3CSK4 first;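 also: robust z of the log signal after scaling to non-targeting control siRNA wells of the plate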
Summary of the method: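 Cells (RAW264.7, 1×10^4 per well) were transfected with siRNA at 100 nM and cultured 48h at 37 degrees C. Pam3CSK4 was added for 5 hours; LipidA transfection followed for 24 hour. IL-1a was then measured by HTRF.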

Sequence	z-score
GGGUGCUUGCCAUUAACCCTT against Galnt14	inactive: 0.767
GGAGAGGGAUAAGUUCUACTT against Unc79	inactive: 0.451
GGAAGCACAUAGAAGCCAATT against Defb11	inactive: -0.504
GGUAUGCAUGAACAUAAUGTT against Prl7c1	inactive: 0.788
CCGCUUUAAGGCACAUCCATT against Ubqln3	inactive: 0.565
GGUCUUUUUGAAUAGAGUATT against Glb1l2	inactive: 0.406
GGGAGAGAGAAAAAGAAAATT against Park7	inactive: 0.94
CCAGCAUGCGUGAUGUCUATT against Gdi1	inactive: -1.71
CUUCCUGAGGAGAAUGUAUTT against Krt86	inactive: -1.92
CCCAAAACGGUAGCUUAAGTT against Rcc1	inactive: -0.0143
CCAGUAUUUGAGAAUUCUGTT against Gm4788	inactive: -0.763
GGCACACAAACAAUUGGUATT against Rrp36	inactive: -0.318
CAAACCCAUGUUCUAAAUGTT against Oog3	inactive: 0.141
GCUACAAUGUAGGUCUCAGTT against Rsbn1	inactive: 1.15
GGAAGAAAACGCAACUAUATT against Atp1b3	inactive: 0.246
GCCUAUUUGACGUGCAGAGTT against Crocc	inactive: -0.0336
GGACAAACAUGGAAGCGUGTT against Itga2b	inactive: -0.728
GGCACUAAAAGAAGAGAUCTT against Bola3	inactive: -0.0508
GCACAUACUACCUAGAAGGTT against Hoxb6	inactive: 0.282
CCGUCUUCGUUUGCCCUUGTT against Hopx	inactive: 1.69
GCGAAUGAUAUGUAUCAGATT against Pik3r1	inactive: 0.647
GGAUAUACAAGUUACAGAATT against Icam1	inactive: 0.661

Four entries from above in a different format:
GGGUGCUUGCCAUUAACCCTT against Galnt14
  z-score: inactive: 0.767
CCGCUUUAAGGCACAUCCATT against Ubqln3
  z-score: inactive: 0.565
GCUACAAUGUAGGUCUCAGTT against Rsbn1
  z-score: inactive: 1.15
GCCUAUUUGACGUGCAGAGTT against Crocc
  z-score: inactive: -0.0336

Later entries.

Sequence	z-score
GGCAAAUGGUCUUUAUGCATT against Zfp606	inactive: -0.211
GCAUCUUAACAAUAACUACTT against Fhl4	inactive: -0.392
GGAUCAGUUGCUCCUAAACTT against Krtap6-2	inactive: -0.522
ACUAGAUUUAUCCUGCACATT against Platr28	inactive: -1.26
CGUGGGACCUGGUAUGUAATT against Slc22a12	active: 2.79
GCUGUCAGAAAUCUUCGACTT against E2f4	active: 2.65
CGCGAACUUACCAAAAUGUTT against Endog	inactive: 0.768
GGAAGUGGUGAAGAAACAUTT against Hsp90ab1	inactive: -1.72
GGUGGAGUACUUGUGUGACTT against Suv39h2	inactive: -0.16
GCAUGUGACUCCAUAUAAATT against Cldn15	inactive: -0.117
GCCGUUUCGUGUGGUAUUUTT against Tm4sf1	active: -2.64
GGCUUUCAUUCUUGGAAAATT against 9530009G21Rik	inactive: -0.362
GGAAACAUGUCCACACUGCTT against 2700062C07Rik	inactive: 0.67
CCAACCUAUAAGUUAAUGATT against Mrps22	inactive: -0.735
GGCAUAUCCAGAUAAGACCTT against Tacc1	inactive: -0.945
GCUAGAACUCGAUGUGGAUTT against Mapk8ip2	inactive: 0.96
GGCUGUGUGAAUUUCAUGGTT against Reln	inactive: -0.596
GGCAAAAUGAAGAAGCUGATT against Hdac6	inactive: -1.3
GCACCUCCACCAAAAAAACTT against Cd52	inactive: -0.0616
GGAUUUCCCAGGAAGCGAATT against Septin4	inactive: -0.711
CGAGAUGGAAUAUCGCACATT against Cyyr1	inactive: 1.74
GCUACAGAUUUCAGGAAAGTT against Slc22a14	inactive: 0.145

Sequence	z-score
GGGACAGCUUUUGUGACUCTT against Raver1	active: -2.16
GGAGAUGUUAAUUGAAGUCTT against Ap3b1	inactive: 0.244
GGAAAGCAAGUUCACAGUGTT against Olfr352	inactive: -0.857
GCCGGAGUUAUGAAAGGAGTT against Srsf10	inactive: 0.701
GCACAUUUAACCAAAAAGCTT against Odam	inactive: -0.594
GCUGUCACACCUAGUGUCATT against Olfr1457	inactive: -0.662
GGAUGAACAUCAAAGAAGATT against Afg1l	inactive: 0.462
GGUCCUUCAGUGUAAAUCUTT against Cbr2	inactive: -0.534
CCAGUGUAAGUUUGAUCAUTT against Zc3h8	inactive: 0.338
GCUAGGCACAAGGUUUUUUTT against Rem1	inactive: 0.616
GGGCCUUUGGAUGUUGCUATT against Abcc10	inactive: 1.11
GCCGAGAGGGAUGUGUAUATT against Psmb1	active: -2.54
GCAUAAUUCUAAAGACGGGTT against Zfp143	inactive: -0.1
GGGUUUGAACUGGUGAUUGTT against Cenpp	inactive: -0.525
CCAAAAAAGUUAGUUGUGGTT against Phf6	inactive: 1.23
GGAAUGAAAAACCUACAUGTT against Cxcl13	inactive: 0.453
GGAGCAGAUGGUUCAUGUCTT against Olfr547	inactive: -1.14
CCAUGCGAAAGAGUAUAAATT against Mtss2	inactive: 0.152
GGUGCUCUGCAUAUUCUGGTT against Olfr654	inactive: 0.55
GGUGUCAAUAACAUAUCAGTT against Nav1	inactive: 0.749
GCUAAAGCAGCCAAGUAUGTT against Eln	inactive: 0.451
CGAAAACGUGAAAUAUCUCTT against Gpd1l	inactive: -0.399

2 entries picked at random from those above, as already listed:
Sequence	z-score
GGAGAGGGAUAAGUUCUACTT against Unc79	inactive: 0.451
GCUGUCACACCUAGUGUCATT against Olfr1457	inactive: -0.662

Remaining list, next part.

Sequence	z-score
CGUGUCAGCUAUUCAUUAATT against Osbpl5	inactive: 0.644
GGGCCAGUACUGUAGCUGUTT against Golga3	inactive: 0.851
CGACAAGACGAACAUCAAGTT against Nrn1	inactive: 0.746
GCUAAAAUUGGAUCAAGGATT against Ackr2	inactive: 1.39
CCGCGUCUGUAUUUGAUAUTT against Sccpdh	inactive: 1.68
GGAUAUACAAAGGAACGCATT against Wdr20rt	inactive: -0.862
GCCUCAGACAGACUUCUUGTT against Rpain	inactive: -0.278
GGGCUAUCUAUCAUAGUUUTT against Scp2	inactive: 1.17
CCGUCUAUGUAUCGGUGUUTT against Prlhr	inactive: 1.5
GAGGUUACUUCAAAGACAATT against Med31	inactive: -0.233
GGGAGACUGCUUCUAGCUGTT against Ncdn	inactive: -0.89
GGAAGCUUCAGGAGUAUAUTT against Sdc2	inactive: -0.326
GUGUUUACACCCAAAAUGCTT against Olfr906	inactive: -1.25
GUGUGACUUUUUGACUAUUTT against Klhl2	inactive: 0.149
GGGUAUGGAUUCAGGUAGATT against Ppp3r2	inactive: -0.847
GGAAGGAUCUAAUCUUUUUTT against Vamp2	inactive: 1.56
GGCAGCAGUAAAGAAAAAGTT against Aimp2	inactive: -0.598
GGAUUGCUGUGCCUUAUGATT against Il34	inactive: -1.81
GGCUUUGAAAGUUACCGGGTT against Sipa1	inactive: -0.454
GGUUGUUGGAAAAAUAGAUTT against Tmem175	inactive: -0.0383
GGACAUUGAGAACAUUAUCTT against Caln1	inactive: -1.14
CGAACAACAGAGUAAAAUUTT against Ank2	inactive: -0.535

Sequence	z-score
GGAAGAAGAGGAGGAGAUGTT against Zbtb7b	active: 3.17
GGCUCUGUCAAGUUCAUCATT against Tgm2	inactive: -0.338
GGAAUCAAACGGACAAACATT against Lmod1	inactive: 0.773
GGAAUAUCCCAACAUCUGUTT against Upp1	inactive: -0.899
GCCACACACGAUUUCAAGUTT against H3c1	inactive: -1.18
GGAGAGCGAAGAAGACUGUTT against Psen2	inactive: 1.21
GGAGUAGUAGCUGAAUUUGTT against Abcc3	inactive: 0.317
CCAAUAACUACUCAUACCCTT against Ints1	inactive: 0.105
GGCUAGAGAGGAUCUUGAGTT against Cdkn2a	inactive: 0.273
GACAGUGCACGAUCUGAUUTT against Pfn3	inactive: 0.274
GCAUUACAUAACAUGGCCATT against Sumo3	inactive: -0.616
GGAAGAAGCCCAAGGACUUTT against Donson	inactive: -1.59
GCAACAAAUUCCUAGGCACTT against Pmp2	inactive: -0.762
GCACUUCGCCCACUGUUUATT against Nhej1	inactive: -1.58
CCAAAGUUAUCUUUUAUGGTT against D830013H23Rik	inactive: -0.282
GGGACUACCAUUUGUUAAUTT against Tktl1	inactive: 0.751
GAGCCAGUCCAUCAUGAUGTT against Pdgfrl	inactive: -0.642
CGGCGUAUGAGGAUUGGUUTT against Atp8b1	inactive: -0.739
GGAACGAGAUGCAGCUAUCTT against Cry1	inactive: -0.836
